Results on 42 sequences are retold here after article PMC7819943, “Rice protein-binding microarrays: a tool to detect cis-acting elements near promoter regions in rice”.

The other results are listed elsewhere or left out.

This assay has as its target T1, OsSMF1 (Oryza sativa, UniProt Q6ZLB0 1-436).
T1 sequence: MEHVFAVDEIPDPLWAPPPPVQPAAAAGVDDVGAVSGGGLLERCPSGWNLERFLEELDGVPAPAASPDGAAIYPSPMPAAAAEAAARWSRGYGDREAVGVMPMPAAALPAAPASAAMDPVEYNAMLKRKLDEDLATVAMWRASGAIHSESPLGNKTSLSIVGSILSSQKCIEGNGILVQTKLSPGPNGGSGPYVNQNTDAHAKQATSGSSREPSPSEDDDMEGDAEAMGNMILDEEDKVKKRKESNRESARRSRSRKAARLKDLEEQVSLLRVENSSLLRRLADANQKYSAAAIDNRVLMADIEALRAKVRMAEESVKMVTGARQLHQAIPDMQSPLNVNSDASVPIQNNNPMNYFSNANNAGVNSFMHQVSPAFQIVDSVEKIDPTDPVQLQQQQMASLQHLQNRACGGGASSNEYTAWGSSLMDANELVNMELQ
Put plainly: protein-binding microarray (RPBM); PBS, 2% BSA, 51.3 ng/ul salmon testes DNA, 50 uM zinc acetate, 200 nM TF, 25 C, 1 h; high values mean tight binding. To be noted: protein: recombinant; tags: N-terminal polyhistidine and DsRed monomer fusion (pET32a); chain copies: 2; label: CyDye5-dUTP incorporated in the synthesized complementary strand; 3' TTTTT single-stranded linker to array surface; dsDNA, one strand shown. The method in brief:
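Binding signal is reported as fluorescence intensity per feature (arbitrary units) from an Axon 4000B scanner. Incubation used 200 nM of each Ni–NTA-purified, N-terminally polyhistidine- and DsRed-fused transcription factor from E. coli BL21-CodonPlus on a double-stranded custom Agilent array for 1 h at 25 °C, with 50 µM zinc acetate in the buffer, followed by washing.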
On to “CATGCATCTCGGTCGTCGTCATTGCCAGATCGTCAGCGATCGGAGTCACCTAGTGCAG”, for which the binding signal was 6420 fluorescence intensity (a.u.).
With “TATGAAATATCCCATCCTATCATAGATTATTATATTACGACGGAGTCACCTAGTGCAG”, the binding signal was 26400 fluorescence intensity (a.u.).
Under “CCGGAGGAGGAAGAACGAGCTGACAGGGTGGTGAGCTGGGCGGAGTCACCTAGTGCAG” stands 5020 fluorescence intensity (a.u.); under “CGTCACATGCCTTCTGATTCGGTTTGTTCTGGCCTTCTTGCGGAGTCACCTAGTGCAG”, 3210 fluorescence intensity (a.u.).
Under “TTGCATGACTTAATACAAAATTTATATATACGTGTCCATTCGGAGTCACCTAGTGCAG” stands 3730 fluorescence intensity (a.u.); under “TACGGAACCTGTAATTTGTTTTGTTATTAGTCTACATTTACGGAGTCACCTAGTGCAG”, 45800 fluorescence intensity (a.u.); under “GGATCAGATCGGATGTCCAGGCTGATGGGGCCGCGACGGTCGGAGTCACCTAGTGCAG”, 15000 fluorescence intensity (a.u.).
Regarding “CTCTCCGAACCTGCGTCCGTCAGCAGGTGGGCGAGTTCGGCGGAGTCACCTAGTGCAG”, the binding signal was 3640 fluorescence intensity (a.u.).
Under “TAAGCCTAATCACGATCACGTCATGATTTGACAATGTGTTCGGAGTCACCTAGTGCAG” stands 4010 fluorescence intensity (a.u.); under “GAGAGAATAGAGATGTGGGCATGCGGCGCAGGATGCAGGACGGAGTCACCTAGTGCAG”, 37700 fluorescence intensity (a.u.); under “CTCCCTGCCCGCCCTGCGCAGCTCCTCCCACCGCCGCCTGCGGAGTCACCTAGTGCAG”, 3270 fluorescence intensity (a.u.).
Under “CCCTCCCACGGCTGGATCCAGCTCCGCCGCCGCTGTATCTCGGAGTCACCTAGTGCAG” stands 3600 fluorescence intensity (a.u.); under “CCGGCAGCTTCACGCGACGAGGTTGCTCCGTCGTCCCGGCCGGAGTCACCTAGTGCAG”, 25200 fluorescence intensity (a.u.).
Under “GCACCGCCGGCGACCTCGTGGACCTCGCCTGTCGCCACATCGGAGTCACCTAGTGCAG” stands 28400 fluorescence intensity (a.u.); under “AGAGGTACGTAAAATGACACATGTGCCTCTTCATACGCTCCGGAGTCACCTAGTGCAG”, 3150 fluorescence intensity (a.u.); under “TCTTAGGCTGTGTTAGAGGGAGAGGAGATTGAGAAGATTGCGGAGTCACCTAGTGCAG”, 3430 fluorescence intensity (a.u.).
As for “CGACGTCGGCGAGGGAGGGCTTCCTGGGCACGTCGGCGAGCGGAGTCACCTAGTGCAG”, the binding signal was 3150 fluorescence intensity (a.u.).
For “TGTAACTATTCTCGCGACACGTACACACCAACACATAAACCGGAGTCACCTAGTGCAG”, the binding signal was 4520 fluorescence intensity (a.u.).
On to “CCGTCTGCCACGTCATTTTCGCCGCCCTCTGGGAGGGCGACGGAGTCACCTAGTGCAG”, for which the binding signal is 12900 fluorescence intensity (a.u.).
Take “GGGTGATTTGTTGTAATGACGCGTGTGGTGGGGTGTGTGGCGGAGTCACCTAGTGCAG”: the binding signal was 8170 fluorescence intensity (a.u.).
As to “GGTCAGTATCTCAAATCTACTCATCATTCTGAAAATCTTGCGGAGTCACCTAGTGCAG”, the binding signal was 3260 fluorescence intensity (a.u.).
Take “CTTCCTTTGATAATATAATATATAGATAAATTCTCTAAGACGGAGTCACCTAGTGCAG”: the binding signal is 3200 fluorescence intensity (a.u.).
Under “TTATTCTGTCAAGAACAATTTCGCCACTAGATCGGTTTGTCGGAGTCACCTAGTGCAG” stands 25800 fluorescence intensity (a.u.); under “TGAGCCATCATTTTAGTTCGTGGTGTACTGCAAAGAGCCACGGAGTCACCTAGTGCAG”, 25000 fluorescence intensity (a.u.); under “CGAGGAATTAGGTTATGGTTGAGAAATGCTGACAATGTGACGGAGTCACCTAGTGCAG”, 3960 fluorescence intensity (a.u.).
With “TCCTTTGGAACATAAAAGTGACGTAGGCATGCAAATTTGTCGGAGTCACCTAGTGCAG”, the binding signal is 13700 fluorescence intensity (a.u.).
In the case of “CGAGCGGGTGCGGGCGTGGCGATCGATCGAACGGCAAACCCGGAGTCACCTAGTGCAG”, the binding signal was 3420 fluorescence intensity (a.u.).
As to “CCTTTTACTACCAAATGACGTATTATCCGTATTTGACAAACGGAGTCACCTAGTGCAG”, the binding signal is 3370 fluorescence intensity (a.u.).
Turning to “TGGTCAAATATGTGTAGTCAACAACGTCATCTATTGAAAACGGAGTCACCTAGTGCAG”, the binding signal is 3580 fluorescence intensity (a.u.).
In the case of “GCGGTAGCCAAGCCTGCCACGTCAGCTCTCGCGCAACGTCCGGAGTCACCTAGTGCAG”, the binding signal was 34600 fluorescence intensity (a.u.).
Regarding “ATGCCTCACTGATGACGGTATCCCGTATGACCCGTCAGAGCGGAGTCACCTAGTGCAG”, the binding signal was 5510 fluorescence intensity (a.u.).
On to “TGAAACCATGGCCCACCCATCAGTCACGTCACGTCGGGACCGGAGTCACCTAGTGCAG”, for which the binding signal was 4040 fluorescence intensity (a.u.).
Take “TCGATCGATCGAATCGATTCCCCTCTCCCGAATCATCCCCCGGAGTCACCTAGTGCAG”: the binding signal was 15600 fluorescence intensity (a.u.).
On to “AGAGAGAGAGAGAGTGGTGACATGGTCACCTGACATGTGGCGGAGTCACCTAGTGCAG”, for which the binding signal was 5460 fluorescence intensity (a.u.).
As to “TGGTTCTCACACTGCTCAAAAGCTGGCCTCTTTATTCAGTCGGAGTCACCTAGTGCAG”, the binding signal is 3220 fluorescence intensity (a.u.).
With “GCGCGAGTCATTAGTGCGTCACTAGCTCGAGCGCCACCTACGGAGTCACCTAGTGCAG”, the binding signal was 4140 fluorescence intensity (a.u.).
As to “TATTAATTTCCAAATAAATTGCTATGTCAATGCCACGTCACGGAGTCACCTAGTGCAG”, the binding signal was 40900 fluorescence intensity (a.u.).
Take “TAACATAATCCTCGAATTATTAATTAGTTAACTATAAGAGCGGAGTCACCTAGTGCAG”: the binding signal was 3440 fluorescence intensity (a.u.).
Turning to “AACTATTGTCTATAAGCTCTTACACGTAGTATACTGCAGCCGGAGTCACCTAGTGCAG”, the binding signal is 3220 fluorescence intensity (a.u.).
Consider “AAAACATGCCTTACCACCTATCATTCGAGGCCACGTATGGCGGAGTCACCTAGTGCAG”, for which the binding signal was 7020 fluorescence intensity (a.u.).
On to “TCACCGGTCACTGACACGTGGCCCCATAAACCGCCACCCTCGGAGTCACCTAGTGCAG”, for which the binding signal was 28900 fluorescence intensity (a.u.).
For “CCTTTTGTGACTTTTGTCCATCAATCATACAGTCACGCTCCGGAGTCACCTAGTGCAG”, the binding signal is 6680 fluorescence intensity (a.u.).
